Source: PubChem BioAssay AID588590 (National Center for Advancing Translational Sciences (NCATS), 2011)
Out of some 390,000 compounds screened, about 4,000 (1%) were called active. This list was built around the results that the source calls inconclusive (neither active nor inactive); the mix of calls is not that of the screen. Calls come from the whole dose curve; as a rule, active = well fitted inhibition curve with a large enough effect; inconclusive = small, poorly fitted or top-dose-only effect, or another doubt; inactive = no such curve, though single readings can be large or run the other way. A potency beside an inconclusive call is a rough fit, not a confirmed value.

Amino acid sequences for entries named in this document (tags omitted). A change or cut given only in a name is not applied to a line headed by its entry.
UniProt Q9UNA4: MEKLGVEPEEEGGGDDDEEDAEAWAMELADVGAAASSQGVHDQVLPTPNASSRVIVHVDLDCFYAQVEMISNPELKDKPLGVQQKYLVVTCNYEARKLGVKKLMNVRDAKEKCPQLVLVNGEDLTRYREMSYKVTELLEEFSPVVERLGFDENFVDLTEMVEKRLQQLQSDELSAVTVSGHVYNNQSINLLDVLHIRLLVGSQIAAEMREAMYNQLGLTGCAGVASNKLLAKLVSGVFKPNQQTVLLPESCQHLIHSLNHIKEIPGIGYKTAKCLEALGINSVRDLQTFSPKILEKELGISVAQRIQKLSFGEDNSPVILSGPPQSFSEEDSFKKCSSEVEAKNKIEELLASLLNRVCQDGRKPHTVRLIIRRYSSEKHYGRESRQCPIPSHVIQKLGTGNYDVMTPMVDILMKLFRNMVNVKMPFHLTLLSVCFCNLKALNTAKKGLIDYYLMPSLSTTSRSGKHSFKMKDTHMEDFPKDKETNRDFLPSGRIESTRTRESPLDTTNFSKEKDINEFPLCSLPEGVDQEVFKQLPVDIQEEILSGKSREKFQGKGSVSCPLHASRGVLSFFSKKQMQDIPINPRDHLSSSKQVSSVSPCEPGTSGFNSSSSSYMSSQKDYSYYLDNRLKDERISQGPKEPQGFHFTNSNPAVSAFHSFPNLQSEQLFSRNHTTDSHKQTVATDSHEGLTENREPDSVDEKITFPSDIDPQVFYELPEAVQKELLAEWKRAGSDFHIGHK

Each compound was assayed against DNA polymerase iota (Homo sapiens) (UniProt Q9UNA4) (assay: qHTS for Inhibitors of Polymerase Iota). Conditions: Pol iota fluorescent replication assay, 10 min; series mostly up to 115 µM.
Method in brief: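 Fluorescent replication assay read twice, at 0 min and 10 min after adding 50 nM (final) substrate. Enzyme (10 nM) and compounds were first incubated 15 min at room temperature; enzyme-free buffer wells were negative controls.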
Potency is the fitted concentration of half-maximal effect.

Potency, inconclusive:
CCNC(=O)/N=C1/NC(=O)C(C(C)C)O1 (centres undefined) 22.4 µM [inhibitor, single point]
CCN(CC(=O)NC1CCS(=O)(=O)C1)S(=O)(=O)c1cccc(C(C)=O)c1 (centres undefined) 50.1 µM [inhibitor, partial curve, poor fit]
Cc1cc(N2C(=O)CC(N3CCN(C(c4ccccc4)c4ccccc4)CC3)C2=O)no1 (centres undefined) 3.98 µM [inhibitor, full curve, poor fit]
COc1cc2c(NC3CCN(C)CC3)nc(N3CCCN(C)CC3)nc2cc1OCCN(C)C 50.1 µM [inhibitor, partial curve]
CCOC(=O)c1c(NC(=O)CSc2nnc(CNc3ccc(C)cc3C)o2)sc(C)c1C 2.82 µM [inhibitor, partial curve, poor fit]
COc1ccccc1N1CCN(c2nc(C)nc3c2oc2ccccc23)CC1 25.1 µM [inhibitor, full curve, poor fit]
CCCCn1c(N)c(N(CC(C)C)C(=O)c2oc3ccc(Br)cc3c2C)c(=O)[nH]c1=O 20 µM [inhibitor, partial curve, poor fit]
COc1ccc2c(c1)C(C)=CC(C)(C)N2C(=O)CNCc1ccc2c(c1)OCO2 28.2 µM [inhibitor, single point]
Cc1ccc(OCCn2cc(/C=N/NC(=O)c3ccncc3)c3ccccc32)cc1 39.8 µM [inhibitor, partial curve, poor fit]
CCNC(=S)N1CCN(S(=O)(=O)c2cccc(C(F)(F)F)c2)CC1 112 µM [inhibitor, partial curve, poor fit]
Cc1cccc(NC(=S)NC(NC(=O)c2ccco2)C(Cl)(Cl)Cl)c1 (centres undefined) 14.1 µM [inhibitor, partial curve, poor fit]
Cc1ccc(CN2CCC(Oc3cccc(C(=O)NCc4cccnc4)c3)CC2)o1 70.8 µM [inhibitor, single point]
Cc1noc(C)c1COc1cccc(C(=O)NCc2cccc(Cl)c2)c1 39.8 µM [inhibitor, single point]
C#CCOCCOCCOCCNc1nc(N2CCN(C(=O)[C@H](Cc3ccc(O)cc3)n3cc([C@@H](N)CC(C)C)nn3)CC2)nc(N2CCN(C(=O)[C@H](Cc3cc4ccccc4[nH]3)n3cc([C@@H](N)CC(C)C)nn3)CC2)n1 17.8 µM [inhibitor, partial curve, poor fit]
O=C(/C=C/c1ccc([N+](=O)[O-])o1)NNC(=O)c1ccc(F)cc1 22.4 µM [inhibitor, full curve]
Cc1nc(S/C(=C/c2ccc(-c3cc(Cl)ccc3C)o2)C(=O)O)n[nH]1 44.7 µM [inhibitor, partial curve]
Cc1ccc([N+](=O)[O-])cc1N=Nc1c(-c2ccc([N+](=O)[O-])cc2)[nH]n(C(N)=S)c1=O 25.1 µM [inhibitor, partial curve, poor fit]
Cc1cc(O)c(/C=N/Nc2ccc(Cl)cc2)c(=O)o1 12.6 µM [inhibitor, partial curve, poor fit]
COc1cc(/C=N/Nc2nn3cnnc3c3ccccc23)cc(OC)c1OC 12.6 µM [inhibitor, partial curve, poor fit]
Clc1ccc2nc(-c3cccc(SC4CCCCC4)c3)c(NCc3ccccc3)n2c1 28.2 µM [inhibitor, partial curve, poor fit]
Cc1cc(C)c(OCCCCn2cnc3ccccc3c2=O)c(C)c1 79.4 µM [inhibitor, partial curve, poor fit]
O=C(CSc1nnc(-c2ccco2)o1)c1ccccc1Cl 50.1 µM [inhibitor, partial curve, poor fit]
CC(=O)c1ccc(NC2=C(N3CCOCC3)C(=O)c3ccccc3C2=O)cc1 17.8 µM [inhibitor, partial curve]
Cn1c(N)c(S(=O)(=O)c2ccc(Br)cc2)c2nc3ccccc3nc21 10 µM [inhibitor, partial curve, poor fit]
COc1ccc(C(=O)Nc2nc(-c3ccc(OC)cc3)c(-c3ccc([N+](=O)[O-])cc3)s2)cc1 112 µM [inhibitor, partial curve, poor fit]
COc1cc(/C=N/NC(=S)N/N=C/c2cc(OC)c(OC)c(OC)c2)cc(OC)c1OC 44.7 µM [inhibitor, partial curve, poor fit]
Cc1ccc(C2(C)NC(=O)N(CC(=O)NCc3cccs3)C2=O)cc1 (centres undefined) 39.8 µM [inhibitor, single point]

Three entries from above, arranged by SMILES length, falling.
Potency, inconclusive:
CCN(CC(=O)NC1CCS(=O)(=O)C1)S(=O)(=O)c1cccc(C(C)=O)c1 (centres undefined) 50.1 µM [inhibitor, partial curve, poor fit]
Cn1c(N)c(S(=O)(=O)c2ccc(Br)cc2)c2nc3ccccc3nc21 10 µM [inhibitor, partial curve, poor fit]
Cc1cc(C)c(OCCCCn2cnc3ccccc3c2=O)c(C)c1 79.4 µM [inhibitor, partial curve, poor fit]

Following part:

Potency, active:
Cc1c(C(=O)O)sc2nc3n(c(=O)c12)CCC3 11.2 µM
CC12C(=O)N(c3nccs3)C(=O)C1C1C=CC2C1 (centres undefined) 89.1 µM
O=C(CSc1nc2ccccc2c(=O)[nH]1)Nc1nc(-c2ccc(Br)cc2)cs1 6.31 µM

Potency, inactive:
CC(/C=C/c1ccccc1)=N\NC(N)=S
Cc1ccc(-n2ccc(=O)c(C(=O)Nc3ccc(S(=O)(=O)Nc4nccs4)cc3)n2)cc1
COC(=O)c1ccccc1NC(=O)c1ccnn1C
CN1C2CCC1/C(=C/c1cccn1C)C(=O)/C2=C\c1cccn1C
Fc1ccc(-c2nn(-c3ccc(Cl)cc3)c3c2cnc2ccc(F)cc23)cc1
CCOc1ccccc1CNC(=O)C1CCN(c2nc3ccccc3nc2C(F)(F)F)CC1
Cn1c(=O)oc2cc(S(=O)(=O)NC(Cc3ccccc3)C(=O)NCc3ccccc3Cl)ccc21 (centres undefined)
CC[n+]1cccc(Br)c1
COc1cc(OC)c(NC(=O)c2ccc3c(c2)N(Cc2ccc(C)cc2)CCS3)cc1Cl
